Test results from PubChem BioAssay AID504456 (NMMLSC, 2011).
Some of the results follow. These are further read-outs of the screen, such as a control signal, another cell line or another target. No call is given for them.

Assay: rapamycin-like growth block in BY4741 yeast – BY4741 wild type, TORC1 bypass strain, mechanism study for yeast TOR pathway GFP screen (AID 504456)
Settings: S. cerevisiae BY4741 spot growth rating, 48-72 h, at 30 µM

Growth rating (0-3), 0:
O=c1cc(CSc2ccc(Cl)cc2)nc(-c2ccccn2)[nH]1
CN1CCN(C(=O)c2cc(COc3c(F)cccc3F)on2)CC1c1ccccc1 (centres undefined)

Growth rating (0-3), 2:
O=C(c1ccc(C(=O)N2CCCc3ccccc32)s1)N1CCCc2ccccc21

Growth rating (0-3), 3:
Oc1c(I)cc(I)c2cccnc12
O=C(Nc1nc(-c2ccccn2)cs1)C1COc2ccccc2O1 (centres undefined)
Cc1cc(Nc2cc(-c3ccccc3)nc(NCc3ccccc3)n2)n[nH]1
Cc1ccc(S(=O)(=O)c2ccc([N+](=O)[O-])cn2)cc1
CCOC(=O)CS(=O)(=O)c1nc(-c2ccccc2)cc(C(F)(F)F)n1
CC(=O)c1ccc(N2CCN(C(=O)c3ccc(Br)cc3)CC2)c(F)c1
Nc1nc(Nc2ccccc2)nc(Nc2cccc(F)c2)c1[N+](=O)[O-]
CCOc1ccc(Nc2nc(NC)nc(N)c2[N+](=O)[O-])cc1
O=[N+]([O-])c1ccc(O)c2ncccc12
CNc1nc(N)c([N+](=O)[O-])c(NCC2CCCO2)n1 (centres undefined)
O=C(OCC(=O)N1CCN(C(=O)c2ccco2)CC1)c1cc(-c2ccc(F)cc2)nc2ccccc12
O=[N+]([O-])c1cc(O)c2ncccc2c1
Clc1cc(Cl)cc(Nc2cc(NC3CCCCC3)nc(NCc3ccccc3)n2)c1
CCOC(=O)c1c(N)nc(NC)nc1Nc1cccc(F)c1
Cc1nn2c(-c3ccncc3)nnc2c2ccccc12
O=C(CCc1ccccc1)NNC(=S)NC(=O)c1ccccc1
Nc1nc(NCCc2ccccc2)nc(Nc2cccc(F)c2)c1[N+](=O)[O-]
Nc1nc(Nc2cccc(F)c2)nc(Nc2cccc(F)c2)c1[N+](=O)[O-]
CCOC(=O)CCS(=O)(=O)c1nc(-c2ccccc2)cc(C(F)(F)F)n1
Cc1ccc(C2=NOC(=O)/C2=C\c2ccc(C)o2)cc1
CC(C)(C)n1nc(-c2ccc(F)cc2)c2c(N)ncnc21
COc1cccc(Nc2nc(N)c([N+](=O)[O-])c(Nc3cccc(F)c3)n2)c1
CC(C)(C)n1nc(-c2ccc(Cl)cc2)c2c(N)ncnc21
Nc1nc(NCCN2CCOCC2)nc(Nc2cccc(F)c2)c1[N+](=O)[O-]
O=C1ON=C(c2ccccc2)/C1=C/c1ccco1
CNc1nc(N)cc(Oc2cccc(Cl)c2)n1
Cn1ncc(S(=O)(=O)Cc2ccccc2)c(Cl)c1=O
Nc1nc(Nc2ccccc2F)nc(Nc2cccc(F)c2)c1[N+](=O)[O-]
COCCNc1nc(N)c([N+](=O)[O-])c(Nc2cccc(F)c2)n1
O=C(COc1ccc(F)cc1Cl)Nc1nc(-c2ccccn2)cs1
c1ccc(-c2cccc(-c3ccccn3)n2)nc1
Cc1ccc(S(=O)(=O)c2ncccc2[N+](=O)[O-])cc1
Nc1nc(NCc2ccco2)nc(Nc2cccc(F)c2)c1[N+](=O)[O-]
COc1ccc([N+](=O)[O-])c(S(=O)(=O)c2ccc(Cl)cc2)n1
O=C(NC(=S)NNC(=O)c1cnccn1)c1ccc(F)cc1
O=C1ON=C(c2ccccc2)/C1=C\c1ccco1

A section from the list above, as a working copy:
Growth rating (0-3), 3:
Cc1cc(Nc2cc(-c3ccccc3)nc(NCc3ccccc3)n2)n[nH]1
Cc1ccc(S(=O)(=O)c2ccc([N+](=O)[O-])cn2)cc1
CCOC(=O)CS(=O)(=O)c1nc(-c2ccccc2)cc(C(F)(F)F)n1
CC(=O)c1ccc(N2CCN(C(=O)c3ccc(Br)cc3)CC2)c(F)c1
Nc1nc(Nc2ccccc2)nc(Nc2cccc(F)c2)c1[N+](=O)[O-]
CCOc1ccc(Nc2nc(NC)nc(N)c2[N+](=O)[O-])cc1
O=[N+]([O-])c1ccc(O)c2ncccc12
CNc1nc(N)c([N+](=O)[O-])c(NCC2CCCO2)n1 (centres undefined)
O=C(OCC(=O)N1CCN(C(=O)c2ccco2)CC1)c1cc(-c2ccc(F)cc2)nc2ccccc12
O=[N+]([O-])c1cc(O)c2ncccc2c1
